Data as given in PubChem BioAssay AID743454 (Peter MacCallum Cancer Centre, 2014)
In all, the deposit lists about 18,000 reagents; this is a random part of them. 450 of all reagents (2.5%) were called active. 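Single biological run; no consistent viability z cut-off exists, so the class columns, not z-scores, define the calls.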

- Test: 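Knock-downs lowering viability or raising caspase 3/7 activity in vorinostat-treated resistant cells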 (primary screen)
- Cell system: human HCT116-VR colon cancer cells, selected for vorinostat resistance
- Knock-down reagent: siRNA pool against human genes, 40 nM siRNA pool
- Timing: vorinostat for 24 h, read-out about 72 h after transfection
- Treatment: vorinostat at 2.5 µM final
- Detection: 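Cell viability by CellTiter-Fluor and caspase 3/7 activity by luminescence, each scaled to mock wells per plate, duplicates averaged, then robust z-scored over all plates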
- Scale: viability robust z-score: higher = more viable cells than screen typical; caspase robust z-score: higher = more caspase 3/7 activity than screen typical
- Call rule: 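a knock-down is a hit when classed RV1 or RV2 for lowered viability, or CA1 or CA2 for caspase activation; those lethal without drug were dropped; hits were retested singly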

| gene symbol | viability hit class | caspase hit class | viability robust z-score | caspase robust z-score | outcome |
| --- | --- | --- | --- | --- | --- |
| RGS11 (regulator of G protein signaling 11) | no change | no change | -0.26 | -0.3 | inactive |
| ADARB1 (adenosine deaminase RNA specific B1) | no change | no change | 0.46 | -0.42 | inactive |
| FBXL22 (F-box and leucine rich repeat protein 22) | no change | no change | -0.62 | -0.26 | inactive |
| BANF2 (BANF family member 2) | no change | no change | -0.62 | -0.7 | inactive |
| ASXL2 (ASXL transcriptional regulator 2) | no change | no change | 1.12 | 0.28 | inactive |
| ATP13A4 (ATPase 13A4) | no change | no change | 0.06 | -0.16 | inactive |
| DEFB129 (defensin beta 129) | no change | no change | -1.13 | -0.88 | inactive |
| SLC44A5 | no change | no change | 0.66 | -0.12 | inactive |
| CYB5B (cytochrome b5 type B) | no change | no change | 0.52 | 0.06 | inactive |
| PPIF (peptidylprolyl isomerase F) | no change | no change | -0.81 | 0.65 | inactive |
| MOAP1 (modulator of apoptosis 1) | no change | no change | -0.7 | -0.26 | inactive |
| LINC02897 (long independently transcribed non-coding RNA 2897) | no change | no change | 0.06 | 2.52 | inactive |
| JAKMIP1 (janus kinase and microtubule interacting protein 1) | no change | no change | 0.09 | -0.8 | inactive |
| CRYZL1 (crystallin zeta like 1) | no change | no change | 0.38 | -0.14 | inactive |
| GNAO1 (G protein subunit alpha o1) | no change | no change | 0.96 | -0.66 | inactive |
| PABPC5 (poly(A) binding protein cytoplasmic 5) | no change | no change | 0.44 | -1.09 | inactive |
| ETNK1 (ethanolamine kinase 1) | no change | no change | 0.9 | 0.3 | inactive |
| XRN1 (5'-3' exoribonuclease 1) | no change | no change | 1.12 | -0.36 | inactive |
| ETAA1 (ETAA1 activator of ATR kinase) | no change | no change | 0.64 | 0.11 | inactive |
| CFAP77 (cilia and flagella associated protein 77) | no change | no change | -0.4 | 0.56 | inactive |
| RFC5 (replication factor C subunit 5) | no change | no change | 0.28 | 0.06 | inactive |
| IRAK1 (interleukin 1 receptor associated kinase 1) | no change | no change | -0.96 | 1.58 | inactive |
| CCN3 (cellular communication network factor 3) | no change | no change | -0.14 | -0.75 | inactive |
| CDKN1C (cyclin dependent kinase inhibitor 1C) | no change | no change | 0.72 | 0.52 | inactive |
| BLMH (bleomycin hydrolase) | no change | no change | -0.16 | -0.7 | inactive |

Next part, starting with the last 4 of the part before.
| gene symbol | viability hit class | caspase hit class | viability robust z-score | caspase robust z-score | outcome |
| --- | --- | --- | --- | --- | --- |
| IRAK1 (interleukin 1 receptor associated kinase 1) | no change | no change | -0.96 | 1.58 | inactive |
| CCN3 (cellular communication network factor 3) | no change | no change | -0.14 | -0.75 | inactive |
| CDKN1C (cyclin dependent kinase inhibitor 1C) | no change | no change | 0.72 | 0.52 | inactive |
| BLMH (bleomycin hydrolase) | no change | no change | -0.16 | -0.7 | inactive |
| RPS24 (ribosomal protein S24) | no change | no change | -4.08 | -1.68 | inactive |
| FOXO3 (forkhead box O3) | no change | no change | -0.33 | -0.89 | inactive |
| PCSK1N (proprotein convertase subtilisin/kexin type 1 inhibitor) | no change | no change | 0.72 | -0.2 | inactive |
| KPNA5 (karyopherin subunit alpha 5) | no change | no change | 0.04 | 0.96 | inactive |
| WDR35 (WD repeat domain 35) | no change | no change | 0.99 | -0.16 | inactive |
| CSNK1G3 (casein kinase 1 gamma 3) | no change | no change | -0.14 | 0.54 | inactive |
| CIMIP5 (ciliary microtubule inner protein 5) | no change | no change | 0.86 | 0.82 | inactive |
| CASQ2 (calsequestrin 2) | no change | no change | 0.22 | 0.24 | inactive |
| CTRL (chymotrypsin like) | no change | no change | 1.13 | -0.22 | inactive |
| H1-2 (H1.2 linker histone, cluster member) | no change | no change | 0.84 | -0.33 | inactive |
| ARVCF (ARVCF delta catenin family member) | no change | no change | -0.22 | 2.4 | inactive |
| MCRIP2 (MAPK regulated corepressor interacting protein 2) | no change | no change | 1.09 | 1.17 | inactive |
| CHIC2 (cysteine rich hydrophobic domain 2) | no change | no change | 1.64 | -0.62 | inactive |
| C4orf33 (chromosome 4 open reading frame 33) | no change | no change | -0.95 | -0.13 | inactive |
